From US20100266584A1 come the findings set out here.

The chains behind the UniProt entries cited, without tags or fusion partners. Where a name states a change or a piece, a line headed by the entry shows the natural chain unless it says otherwise. Residues count along the entry.
UniProt P21860: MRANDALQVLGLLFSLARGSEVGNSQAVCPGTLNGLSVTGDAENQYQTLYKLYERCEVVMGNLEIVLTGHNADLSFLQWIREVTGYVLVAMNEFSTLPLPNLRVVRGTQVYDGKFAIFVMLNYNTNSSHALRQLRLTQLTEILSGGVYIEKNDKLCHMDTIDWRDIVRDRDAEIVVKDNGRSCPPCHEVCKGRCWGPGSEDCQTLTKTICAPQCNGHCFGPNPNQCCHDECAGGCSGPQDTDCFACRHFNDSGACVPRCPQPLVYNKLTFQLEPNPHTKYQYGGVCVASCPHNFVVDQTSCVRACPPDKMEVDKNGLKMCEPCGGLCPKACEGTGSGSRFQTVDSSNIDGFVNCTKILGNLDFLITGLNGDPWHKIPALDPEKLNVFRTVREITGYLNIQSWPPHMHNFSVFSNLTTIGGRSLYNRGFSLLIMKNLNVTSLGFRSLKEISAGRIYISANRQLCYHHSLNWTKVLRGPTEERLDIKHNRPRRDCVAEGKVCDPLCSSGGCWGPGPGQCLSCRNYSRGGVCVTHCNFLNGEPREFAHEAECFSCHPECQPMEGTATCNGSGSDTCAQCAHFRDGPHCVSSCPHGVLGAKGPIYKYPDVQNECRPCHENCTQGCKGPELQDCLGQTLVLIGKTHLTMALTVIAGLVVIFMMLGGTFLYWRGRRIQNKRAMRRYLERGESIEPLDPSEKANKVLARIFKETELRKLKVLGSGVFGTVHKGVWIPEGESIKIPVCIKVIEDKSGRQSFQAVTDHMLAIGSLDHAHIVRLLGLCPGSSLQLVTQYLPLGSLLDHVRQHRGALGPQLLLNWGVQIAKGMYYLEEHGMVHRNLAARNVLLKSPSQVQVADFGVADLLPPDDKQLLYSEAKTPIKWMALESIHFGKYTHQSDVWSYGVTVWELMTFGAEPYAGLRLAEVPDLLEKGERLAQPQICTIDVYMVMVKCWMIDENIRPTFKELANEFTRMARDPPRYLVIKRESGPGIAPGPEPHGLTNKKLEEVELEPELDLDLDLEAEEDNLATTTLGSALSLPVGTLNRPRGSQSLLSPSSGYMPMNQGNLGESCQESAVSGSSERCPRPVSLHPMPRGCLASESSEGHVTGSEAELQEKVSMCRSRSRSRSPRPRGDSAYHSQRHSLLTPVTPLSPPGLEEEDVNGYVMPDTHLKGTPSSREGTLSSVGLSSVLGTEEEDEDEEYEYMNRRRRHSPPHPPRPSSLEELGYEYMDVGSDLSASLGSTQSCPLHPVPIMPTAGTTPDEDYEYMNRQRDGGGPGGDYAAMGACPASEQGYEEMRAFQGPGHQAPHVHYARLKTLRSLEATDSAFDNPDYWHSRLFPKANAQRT
UniProt O14944, residues 63-108: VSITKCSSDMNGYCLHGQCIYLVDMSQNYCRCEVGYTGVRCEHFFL

Results are given in words; binding and its absence hold for the method and conditions named. Some entries that bind do so weakly or less than the wild type.

Assay [1] has as its target ErbB3, full length, on cells (human) (UniProt P21860). Nature of the assay: FACS, 1 uM biotinylated epiregulin on AdrR cells. A general note: A flow cytometer gives signals particle by particle.
In assay [2] the target is ErbB1 on AdrR cells (UniProt P00533). Put plainly: FACS, biotinylated BTC on AdrR cells.
Assay [3] has the same target. Nature of the assay: FACS, biotinylated BTC on AdrR cells, streptavidin-PE.

“epiregulin (from UniProt O14944 63-108) (ligand)”: in assay [1], the binding entry is reported as “binds”.

B1: betacellulin (ligand, UniProt P35070 32-111, looked up)
chain: DGNSTRSPETNGLLCGDPEENCAATTTQSKRKGHFSRCPKQYKHYCIKGRCRFVVAEQTPSCVCDEGYIGARCERVDLFY
modifications: biotinylated (FACS binding assays)
Take B1: the binding entry in assay [2] and in assay [3] was “binds” in each case.
